Measured values: patent publication US20120003299A1
These are yes or no findings as the source states them, for the method shown. Some entries that bind do so weakly or less than the wild type.

Assays:
[1] = target: recombinant human Hsp90 (human) (UniProt P07900); assay: discussion of the SPR results of Example 1
[2] = target: recombinant human Hsp90 (human) (UniProt P07900); assay: SPR (BIACORE): Hsp90 immobilized on sensor chip
[3] = target: recombinant human Hsp90 (human) (UniProt P07900); assay: SPR (BIACORE): Hsp90 immobilized on sensor chip (legend of FIG. 2)

binding [1]: binds | binding [2]: binds | binding [3]: binds
B1: Antp-TPR chimeric peptide (…-…) (peptide)
peptide: RQIKIWFQNRRMKWKKKAYARIGNSYFK
